54 compounds from PubChem BioAssay AID1487 (National Center for Advancing Translational Sciences (NCATS), 2009) can be followed below.

The structures appear in SMILES notation. The list shows a part of the results. The main result of the screen is listed elsewhere. These columns were measured beside it and carry no call. Compounds called inactive in the main read-out are mostly missing here. Potencies come from curve fits of mixed quality, noted in brackets.

The assay is described as follows: qHTS Assay for Modulators of Lamin A Splicing. Particulars: HeLa LMNA splicing GFP/RFP minigene ratio, 48 h. Summed up: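 S3 HeLa cells stably expressing lamin A-EGFP splicing minigene plus DsRed2, 600 cells/well, 48 h compound exposure at 37C. Laser-scanning cytometry; analysed as GFP (500-530 nm)/RFP (575-640 nm) total intensity ratio; 0.5% DMSO vehicle.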
Where [1] appears, read: measured here: RFP viability control channel.
Setting [2] is: measured here: GFP splicing reporter channel.

With `Cc1cc(=O)c2cc(Br)ccc2[nH]1`, the AC50 under setting [1] is 35.5 µM [rising, single point].

On to `CCCCc1nnc(SCc2ccc(OCC)cc2)n1N`, for which, under setting [1], the AC50 was 0.141 µM [rising, full curve, poor fit]. `CN(C)S(=O)(=O)c1cccc(NC(=O)COC(=O)c2cc(=O)c3ccccc3o2)c1`: under setting [1], the AC50 was 11.2 µM [falling, partial curve].

Consider `CC(=O)c1cccc(NC(=O)C2CCN(c3ncnc4c3nc3n4CCCCC3)CC2)c1`, for which the AC50 under setting [1] is 25.1 µM [rising, single point]. In the case of `Fc1ccccc1/C=N/NC(=S)Nc1ccc(Cl)cc1Cl`, the AC50 runs as follows: under setting [2], 2.24 µM [rising, partial curve, poor fit]; under setting [1], 5.62 µM [rising, partial curve]. Regarding `O=C(NC1CCCCC1)C(c1ccncc1)N(Cc1ccccc1)C(=O)c1ccc(-c2ccccc2)[nH]1` (stereo not given), the concentration at half-maximal activity (AC50) reads like this: under setting [2], 14.1 µM [falling, single point]; under setting [1], 0.0316 µM [falling, single point]. As to `COc1cc(-c2nnc(Sc3ccc(C(F)(F)F)cc3[N+](=O)[O-])o2)cc(OC)c1OC`, under setting [1], the AC50 was 11.2 µM [rising, partial curve]. Still for that read-out and setting: the figure for `Clc1ccc(CN2CCN(c3ncnc4sc5c(c34)CCCC5)CC2)cc1Cl` is 35.5 µM [rising, single point]; for `COc1ccc(NC(=O)CCC2CCCCC2)cc1S(=O)(=O)N1CCCCC1` it is 10 µM [rising, partial curve].

In the case of `CCn1c(CN2CCN(c3ccc(Cl)cc3)CC2)nc2ccccc21`, the AC50 under setting [1] was 14.1 µM [rising, single point]. In the case of `O=C(COc1ccc(Cl)cc1Cl)NCc1ccco1`, under setting [2], the AC50 was 17.8 µM [rising, single point]. As for `CCNc1ccc(S(=O)(=O)N(C)C)cc1NCC(=O)Nc1ccc(Br)cc1F`, the AC50 under setting [1] is 8.91 µM [rising, partial curve].

With `Cc1cccc(/C=C/c2nc3ccccc3c(=O)[nH]2)c1`, the AC50 under setting [1] was 3.98 µM [rising, single point]. On to `CC(C)=CCSc1nnc([C@@H](NC(=O)OC(C)(C)C)C(C)C)o1`, for which the AC50 is 14.1 µM [rising, partial curve, poor fit] under setting [2] and 14.1 µM [rising, partial curve] under setting [1].

As for `C/C=C(/C(=C/C)c1ccc(O)cc1)c1ccc(O)cc1`, the AC50 by setting is: under setting [2], 5.01 µM [rising, partial curve, poor fit]; under setting [1], 2 µM [rising, full curve, poor fit].

As for `COc1ccc(C2c3[nH]c4ccccc4c3CCN2C(=O)CCC2CCCC2)cc1` (stereo not given), the AC50 under setting [2] was 4.47 µM [falling, full curve, poor fit] and the AC50 under setting [1] was 20 µM [rising, single point]. Turning to `CCN(CC)C(=O)c1sc2c(c1C)c(=O)n(-c1ccc(C)c(C)c1)c(=O)n2Cc1cc(=O)n2ccccc2n1`, the concentration at half-maximal activity (AC50) under setting [1] was 35.5 µM [falling, partial curve, poor fit]. The same measure, in the same setting: the value for `CC1Cc2ccccc2N1C(=O)c1nn(C)cc1Br` (stereo not given) was 25.1 µM [rising, single point]. As to `CC(Cc1cccs1)NC(=S)Nc1ccc(F)cc1` (stereo not given), the AC50 runs as follows: under setting [2], 15.8 µM [rising, partial curve, poor fit]; under setting [1], 12.6 µM [rising, partial curve, poor fit]. As for `COC(=O)[C@@]1(Cc2ccc(F)cc2)[C@H]2c3cc(C(=O)N(C)C)n(CCc4ccc(OC)c(Br)c4)c3C[C@H]2CN1C(=O)c1ccccc1`, the AC50 was 8.91 µM [rising, partial curve, poor fit] under setting [2] and 20 µM [rising, partial curve, poor fit] under setting [1]. On to `Cc1ccc2sc(N(Cc3cccnc3)C(=O)CCS(=O)(=O)c3ccccc3)nc2c1C`, for which the AC50 under setting [2] is 4.47 µM [falling, full curve] and the AC50 under setting [1] is 10 µM [falling, partial curve].

Turning to `COc1ccc2oc3cc(C)[n+]([O-])c(-c4ccc(C)cc4)c3c2c1`, under setting [1], the AC50 was 35.5 µM [rising, single point]. Regarding `CCN(CC)c1ccc2cc(S(=O)(=O)c3ccc(Cl)cc3)c(=O)oc2c1`, the AC50 was 8.91 µM [rising, partial curve, poor fit] under setting [2] and 17.8 µM [rising, partial curve] under setting [1]. On to `O=C1NCC(c2ccccc2)C1C(=O)N/N=C\c1ccc(-c2cccc(Cl)c2Cl)o1` (stereo not given), for which the AC50 is, setting by setting: under setting [2], 35.5 µM [rising, single point]; under setting [1], 15.8 µM [rising, single point]. For the compound `O=c1nc(-c2ccccc2)cn[nH]1`, the AC50 under setting [2] is 7.08 µM [rising, full curve, poor fit].

As for `CCC(Sc1nc2c(sc3ccccc32)c(=O)n1CCc1ccc(OC)c(OC)c1)C(=O)N(CC)CC` (stereo not given), the AC50 was 22.4 µM [rising, single point] under setting [2] and 17.8 µM [rising, single point] under setting [1].

Turning to `CCn1ncc(/C=C/C(=O)Nc2c(C)nn(Cc3ccc(Cl)cc3Cl)c2C)c1C`, the AC50 is 35.5 µM [falling, single point] under setting [2] and 20 µM [falling, single point] under setting [1]. As for `Cc1ccc(C(C)C)c(OCc2ccc(C(=O)N/N=C/c3cccc(O)c3O)cc2)c1`, the AC50 was 10 µM [rising, partial curve] under setting [2] and 15.8 µM [rising, partial curve] under setting [1]. On to `NC(=O)C1CCN(CCC(=O)Nc2ccc(Br)cc2)CC1`, for which the AC50 under setting [1] is 5.62 µM [rising, single point]. Take `CCC(C(=O)NC(C)CCc1ccccc1)n1nc(C)n2c(cc3occc32)c1=O` (stereo not given): the concentration at half-maximal activity (AC50) is 12.6 µM [rising, partial curve, poor fit] under setting [2] and 22.4 µM [rising, single point] under setting [1]. As for `C=CCn1c(SCC(=O)Nc2sccc2C(N)=O)nc2ccc(Cl)cc2c1=O`, the AC50 under setting [1] was 7.08 µM [rising, full curve, poor fit]. As for `O=C(Nc1ccc(-c2nc3ccccc3o2)cc1)c1cccnc1`, the AC50 under setting [2] was 2 µM [rising, partial curve]. Turning to `CN(C)CCCN(C(=O)CCOc1ccccc1)c1nc2ccc(F)cc2s1`, the AC50 under setting [1] was 3.16 µM [falling, single point]. As for `COc1ccccc1C1C2=C(N=C3SCC(=O)N31)c1ccccc1CC2` (stereo not given), the AC50 under setting [2] is 22.4 µM [rising, single point].

In the case of `COC(=O)c1ccc(-c2nc(O)c(C)s2)cc1`, the AC50 under setting [1] was 0.112 µM [rising, full curve]. Consider `Cc1c(C(=O)N/N=C/c2cccnc2)sc(=S)n1C`, for which the AC50 under setting [1] was 3.55 µM [rising, full curve, poor fit]. On the same count and under the same terms, the value for `Cc1ccc(O)c(N=Cc2sc3ccccc3c2Cl)c1` was 15.8 µM [rising, partial curve]. On to `CC1(C(=O)Nc2cccc(C(F)(F)F)c2)CO1` (stereo not given), for which the AC50 under setting [2] was 0.00282 µM [rising, full curve, poor fit] and the AC50 under setting [1] is 0.282 µM [rising, full curve, poor fit].

For the compound `NCC[C@H](O)C(=O)N[C@H]1C[C@@H](N)[C@@H](O[C@H]2O[C@@H](CN)[C@@H](O)[C@@H](O)[C@@H]2O)[C@@H](O)[C@@H]1O[C@H]1O[C@@H](CO)[C@@H](O)[C@@H](N)[C@@H]1O`, the AC50 was 0.398 µM [falling, full curve] under setting [2] and 0.398 µM [falling, full curve] under setting [1]. Take `NNC(=O)CS(=O)(=O)CS(=O)(=O)CC(=O)NN`: the AC50 was 22.4 µM [falling, partial curve, poor fit] under setting [2] and 0.398 µM [falling, partial curve, poor fit] under setting [1].

In the case of `C[N+](C)(C)CC(O)CC(=O)O` (stereo not given), the AC50 under setting [2] is 0.708 µM [rising, partial curve]. Consider `CC1=C(C(=O)c2ccccc2)C(c2cccc([N+](=O)[O-])c2)NC(=S)N1` (stereo not given), for which the AC50 under setting [1] is 1.78 µM [rising, partial curve]. In the case of `O=[N+]([O-])c1cc(/C=N/n2cnnc2)ccc1N1CCCC1`, the AC50 by setting is: under setting [2], 5.01 µM [falling, single point]; under setting [1], 3.16 µM [falling, full curve]. For the compound `Cc1cccc(N2C(=O)C(Oc3ccc(Cl)cc3Cl)C2C=O)c1C` (stereo not given), the AC50 runs as follows: under setting [2], 6.31 µM [rising, single point]; under setting [1], 22.4 µM [falling, single point]. As for `COc1ccc(CC(=O)N2CCN=C2SC)cc1OC`, the AC50 under setting [2] was 0.158 µM [rising, full curve] and the AC50 under setting [1] was 0.158 µM [rising, full curve, poor fit].

Consider `Cc1cc(NC(=O)CSCc2ccccc2C)no1`, for which, under setting [2], the AC50 was 0.141 µM [rising, partial curve, poor fit]. Same read-out and setting: the value for `CC(=O)c1ccc2noc(-c3cccc(C)c3)c2c1` was 2.24 µM [falling, single point]; that for `Cc1noc(C)c1-c1ccc2ncnc(NC3CCNCC3)c2c1` was 12.6 µM [falling, partial curve]; that for `COc1ccc(C(=O)Nc2cccc(C(=O)OCc3cc(=O)n4nc(C5CC5)sc4n3)c2)cc1` was 6.31 µM [falling, full curve]. Consider `CS(=O)(=O)N1CCN(c2ccc([N+](=O)[O-])c(NCc3ccc(Cl)cc3)c2)CC1`, for which, under setting [1], the AC50 was 35.5 µM [falling, single point]. The same measure, in the same setting: the figure for `O=C(Nc1ccccc1)/C(=C/c1cccnc1)NC(=O)c1ccco1` is 7.94 µM [rising, partial curve, poor fit].

`O=C(Nc1ccccn1)c1ccc(COc2ccccc2Cl)o1`: the AC50 under setting [1] is 12.6 µM [rising, partial curve, poor fit]. For `Cc1ccc(S(=O)(=O)Nc2ccc(N(C)S(=O)(=O)c3ccc(C)cc3)cc2)cc1`, the half-maximal activity concentration (AC50) was 15.8 µM [rising, partial curve, poor fit] under setting [2] and 35.5 µM [rising, single point] under setting [1]. Consider `Cc1ccc2cc(C)c(N3CCN(c4ccccn4)CC3)nc2c1`, for which, under setting [1], the AC50 was 31.6 µM [rising, single point].
